Experimental data from paper PMC9821614.
Results are given in words; binding and its absence hold for the method and conditions named. Binding calls can cover weak binding; strength is not graded here.

Amino acid sequences for entries named in this document (tags omitted). A change or cut given only in a name is not applied to a line headed by its entry.
UniProt I1M0U7: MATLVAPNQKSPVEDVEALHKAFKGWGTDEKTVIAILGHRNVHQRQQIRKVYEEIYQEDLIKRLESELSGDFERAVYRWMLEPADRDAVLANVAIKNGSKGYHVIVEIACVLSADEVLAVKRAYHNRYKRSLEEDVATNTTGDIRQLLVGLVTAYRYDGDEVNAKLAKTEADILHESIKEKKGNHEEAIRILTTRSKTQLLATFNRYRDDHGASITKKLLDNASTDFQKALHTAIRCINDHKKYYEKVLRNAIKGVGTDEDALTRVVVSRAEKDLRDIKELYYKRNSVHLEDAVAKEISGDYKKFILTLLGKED
UniProt A0A0R0ICR4: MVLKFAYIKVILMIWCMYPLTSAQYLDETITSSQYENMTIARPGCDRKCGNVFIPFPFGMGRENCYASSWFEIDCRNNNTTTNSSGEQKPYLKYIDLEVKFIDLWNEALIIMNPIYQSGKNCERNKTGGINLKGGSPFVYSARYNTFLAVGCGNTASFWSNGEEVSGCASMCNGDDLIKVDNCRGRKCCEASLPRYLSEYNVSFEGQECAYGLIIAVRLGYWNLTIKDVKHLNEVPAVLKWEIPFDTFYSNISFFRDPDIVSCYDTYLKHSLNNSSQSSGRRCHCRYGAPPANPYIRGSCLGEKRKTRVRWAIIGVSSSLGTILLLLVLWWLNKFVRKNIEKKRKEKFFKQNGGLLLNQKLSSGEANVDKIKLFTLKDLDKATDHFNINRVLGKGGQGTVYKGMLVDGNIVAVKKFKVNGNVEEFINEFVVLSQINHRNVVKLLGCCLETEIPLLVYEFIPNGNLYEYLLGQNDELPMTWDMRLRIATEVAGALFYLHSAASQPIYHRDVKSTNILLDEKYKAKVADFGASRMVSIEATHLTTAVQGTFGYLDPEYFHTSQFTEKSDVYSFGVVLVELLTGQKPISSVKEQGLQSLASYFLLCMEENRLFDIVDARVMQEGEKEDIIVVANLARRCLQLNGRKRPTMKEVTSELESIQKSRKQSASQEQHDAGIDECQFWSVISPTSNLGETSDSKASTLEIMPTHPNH

Target: GmANNRJ4-GST recombinant protein (Glycine max (soybean)) (UniProt I1M0U7)
Test: pull-down; GST or GmANNRJ4-GST on GST resin in GST binding buffer, 1 h at 4 °C, then GmWAK1-His added for 6 h at 4 °C; five washes; immunoblot with anti-His and anti-GST; both purified

binding: binds
Substance: GmWAK1-His recombinant protein (from UniProt A0A0R0ICR4)
